Reference: patent US5532231A, “Antibacterial agent” (priority 1994, dated 1996)
At least one structure is not confirmed: it was looked up by name or label, or the drawing left a doubt.

Test system: E. coli ESS
Experiment: Activity against E. coli ESS in a liquid medium (FIG. 3)
Format: cell-based, Escherichia coli

Structure (SMILES): CCCC1OC(=O)C(C)CC(C)CCCCC(=O)CCCC(CC)CCCC(COC)CCC(O)C(O)CC(O)CNC1=O (centres unmarked) [Focusin]
- LD50: 20 ng/mL

Structure (SMILES): CCCC1OC(=O)C(C)CC(C)CCCCC(=O)CCCC(CC)C=CC=C(COC)CCC(O)C(O)CC(O)CNC1=O (centres unmarked) [TA, reference compound]
- LD50: 4 ng/mL
